Drawing on article PMC3716638, this text covers binding for two substances.

Amino acid sequences for entries named in this document (tags omitted). Residues count along the entry.
UniProt Q03405, residues 23-305: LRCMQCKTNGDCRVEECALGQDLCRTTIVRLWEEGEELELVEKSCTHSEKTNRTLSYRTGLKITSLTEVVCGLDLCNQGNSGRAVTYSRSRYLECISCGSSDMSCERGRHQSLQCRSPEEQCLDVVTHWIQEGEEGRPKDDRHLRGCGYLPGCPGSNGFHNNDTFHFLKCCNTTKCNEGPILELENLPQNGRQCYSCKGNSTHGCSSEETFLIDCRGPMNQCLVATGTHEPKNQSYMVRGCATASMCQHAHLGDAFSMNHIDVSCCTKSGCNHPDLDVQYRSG
UniProt P06733: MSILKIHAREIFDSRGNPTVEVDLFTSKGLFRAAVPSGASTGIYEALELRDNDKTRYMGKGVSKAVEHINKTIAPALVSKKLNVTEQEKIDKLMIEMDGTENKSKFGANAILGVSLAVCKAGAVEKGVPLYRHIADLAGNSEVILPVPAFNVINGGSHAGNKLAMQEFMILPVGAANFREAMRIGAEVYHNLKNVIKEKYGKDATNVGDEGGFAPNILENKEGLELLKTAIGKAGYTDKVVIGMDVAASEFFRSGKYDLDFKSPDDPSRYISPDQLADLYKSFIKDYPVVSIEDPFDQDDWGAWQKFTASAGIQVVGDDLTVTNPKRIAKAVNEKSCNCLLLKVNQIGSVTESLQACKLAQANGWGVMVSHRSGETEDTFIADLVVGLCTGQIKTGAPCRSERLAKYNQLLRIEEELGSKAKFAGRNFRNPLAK

Assay [1] deals with urokinase-type plasminogen activator receptor (uPAR), endogenous in human PE089 lung cancer cells (human (endogenous in PE089)) (UniProt Q03405). Nature of the assay: proximity ligation; Duolink in situ PLA on paraformaldehyde-fixed LLC/luc and PE089 cells; ENO1-specific Ab together with Ab against uPA, uPAR or PLG; signal means the two proteins are within 40 nm.
The target is the same in assay [2]. Put plainly: co-IP; 50 µg cell lysate of PE089 or LLC/luc incubated with 2 µg anti-plasminogen, anti-uPA, anti-uPAR or isotype-control Ab overnight at 4°C, protein A/G Sepharose; blot probed with anti-human ENO1 Ab or mENO1 Ab.
The target in the next assay is ovalbumin (OVA) (UniProt P01012). Nature of the assay: far-Western, overlay or dot blot; cell-free dot blot: 1 µg of each protein (PLG, ENO1, uPAR, uPA, OVA) dotted on nitrocellulose, blocked with 5% BSA/PBS, each strip incubated with 1 µg/ml of uPA, uPAR, ENO1 or PLG in PBS for 1 h at room temperature, washed with PBS 0.1% Tween 20, detected with the Ab against the soluble protein and ECL; both purified.

No constants are given. Whether binding was seen depends on the method and setting. For part of these data: In cells and extracts the contact can be indirect. Some entries that bind do so weakly or less than the wild type.

With “α-enolase (ENO1), endogenous in human PE089 lung cancer cells (from UniProt P06733 1-434)”, the binding entry in assay [1] and in assay [2] was “binds” throughout.
Take “urokinase-type plasminogen activator receptor (uPAR), protein used in the cell-free dot blotting assay (from UniProt Q03405 23-305)”: the binding result in the assay with ovalbumin (OVA) is on record as “no binding (tested: 1 µg/ml)”.
